PubChem BioAssay AID588463 (National Center for Advancing Translational Sciences (NCATS), 2011)
Among all 1,200 compounds or so, about 15 (1%) were called active. Not shown: some 7% with an inconclusive outcome. The call rests on the fitted dose curve; in most records, active means well fitted activation curve with a large enough effect; inconclusive means small, poorly fitted or top-dose-only effect; inactive means flat fitted curve, though single readings scatter. This is one part of the list.

Target: Beta-2 adrenergic receptor (Homo sapiens) (UniProt P07550)
Test: qHTS assay of beta-arrestin-biased ligands of beta2-adrenergic receptor: Hit Validation;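 further: plate controls were DMSO for no effect and maximal isoproterenol or metaproterenol response for full effect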
Details: cell-based beta-arrestin recruitment to beta2AR; Potency: activation; series mostly up to 46.1 µM; activation: at the top concentration
In short: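 Tango beta-arrestin recruitment assay in cells at 1500 cells/well in 1% FBS medium, 18 h compound exposure at 37 °C. Luciferase luminescence read 15 min after substrate addition; %activity curves classified by curve class.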

activation, inactive:
C=CCNC(=S)N/N=C/c1ccc(C(F)(F)F)cc1 -2.41%
C=CCNC(=S)N/N=C/c1ccc(-c2cc(Cl)ccc2Cl)o1 -2.16%
COc1ccccc1/C=N/NC(=S)Nc1cccnc1 -1.07%
COc1cc(OC)c(C2Nc3cccc4cccc(c34)N2)c(OC)c1 -5.32%
COC(=O)NNC(=O)COc1ccc2ccccc2c1Br -0.79%
C/C(=N/NC(N)=S)c1ccc(Br)s1 0.669%
Cc1onc(-c2ccccc2)c1C(=O)N/N=C/C(Br)=C/c1ccccc1 -2.07%
O=C(Cc1cccs1)N/N=C/C=C/c1ccco1 -1.18%
COc1ccc(CCNc2nc(-c3ccccn3)cs2)cc1OC 3.08%
CCCCCCC[C@@H](C/C=C/CCC(=O)N(C)C/C(=C/Cl)C/C(=C\C(=O)N1CC(OC)=CC1=O)OC)OC -2.85%
O=C1c2ccccc2CN1c1ccccc1 -3.12%
C=CCNC(=S)NNc1ncnc2sc3c(c12)CC(C)(C)OC3 -4.28%
CCCCC(=O)/C=C/n1c(=S)oc2ccccc21 -2.45%
COCC(=O)N1CCC(Oc2ccc(C(=O)NCc3cc(C)no3)cc2)CC1 -2.69%
COc1ccc(-c2cc(C(F)(F)F)nc(SCC(=O)NCc3ccco3)n2)cc1OC -1.26%
COc1ccc(NC(=S)Nc2cccc(C)n2)cc1 -2.31%
O=C(Oc1c(CN2CCOCC2)cc(Cl)c2cccnc12)c1ccccc1Cl 0.917%
Cc1cc(/C=C(\C#N)C(=O)NC2CCCCCC2)c(C)[nH]1 -1.99%
CC1CCCC/C1=N\NC(=S)NCCc1ccccc1 (stereo unspecified) -2.85%
O=C1OC(c2ccccc2)=C/C1=C\N1CCOCC1 -2.64%
Fc1ccccc1/C=N/Nc1ncnc2ccccc12 -1.82%
CN(C)c1nc(N/N=C/c2ccccc2O)nc(Nc2ccc(F)cc2)n1 -2.49%
CCc1cc(C(=O)N(CC(C)C)c2c(N)n(Cc3ccccc3)c(=O)[nH]c2=O)sc1C -3.09%
CSC1=C(C#N)C(c2ccccc2Cl)C2=C(N1)c1ccccc1C2=O (stereo unspecified) -2.57%
CN1CCC(C2(O)c3ccccc3CSc3sccc32)CC1 (stereo unspecified) -1.61%
NC(=S)N/N=C/c1ccc(-c2ccc(Cl)c(Cl)c2)o1 -5.57%
S=C(Nc1nc2c(s1)CCCC2)NC1CC1 -1.69%
Oc1ccc(N=Nc2nccs2)c(O)c1 -2.66%
CCC(Sc1nc(C)cc(=O)[nH]1)C(=O)Nc1nc2c(s1)CCCC2 (stereo unspecified) -0.225%
N#C/C(=C\c1cccc(O)c1)c1nc2ccccc2o1 0.103%
CN(C)/C=C1\N=C(c2cccnc2Oc2ccc(Cl)cc2)OC1=O -7.85%
Cc1cc(N)n(Cc2cccs2)n1 -0.484%
C=CCNC(=S)NC(=O)c1ccc(C)c(Br)c1 -1.73%
NC(=S)N/N=C/c1ncc(C(F)(F)F)cc1Cl -2.53%
CCCc1cc(SCC(=O)Nc2c(C)n(C)n(-c3ccccc3)c2=O)n2c(nc3ccccc32)c1C#N 2.95%
COCCNc1c(-c2cc3ccc(C)c(C)c3[nH]c2=O)nc2ccccn12 -2.26%
C/C(CC(C)(C)C1CCCCC1)=N\NC(N)=S -3.33%
Cc1ccc2[nH]c(=S)cc(C)c2c1 -2.35%
CC(C)(C)NNC(=S)Nc1cccc(F)c1 -2.61%
CN(Cc1ccccc1)C(=O)N[C@@H](Cc1ccccc1)C(=O)O -2.37%
O=C(CNc1cccc(Cl)c1)c1ccc(Br)cc1 -2.41%
Cc1ccc(C2(C)NC(=O)N(CC(=O)c3ccc4c(c3)OCCO4)C2=O)cc1 (stereo unspecified) 4.6%
COc1ccc(/C(C)=N/Nc2nc3ccccc3nc2C)cc1OC -2.66%
COc1cc(/C=N/NC(=O)CCn2c3ccccc3c3ccccc32)ccc1O -0.35%
COC(=O)c1c(C)[nH]c(C(=O)OCC(=O)c2ccc(C)s2)c1C -0.963%
C/C(=N\Nc1ncc(Cl)cc1Cl)c1ccc(N2CCOCC2)cc1 -1.87%
CCc1ccc2c(COC(=O)C3CSC4(C)CCC(=O)N34)cc(=O)oc2c1 (stereo unspecified) -3.4%
NNC(=S)NC1CCCCC1 -0.237%
CC(C)CC(=O)NC(=S)Nc1ccc(Cl)cn1 -0.717%
On1ccccc1=S 0.091%
COc1cccc(/C=N/Nc2nc(Nc3ccccc3)nc(-n3nc(C)cc3C)n2)c1O -0.263%
CCNC(=S)N/N=C(\C)c1ccco1 -2.33%
CC1(C)CC(=O)C2=C(C1)Nc1cc(C(=O)c3ccccc3)ccc1NC2c1ccccn1 (stereo unspecified) -0.252%
Cc1ccc(OCC(=O)N/N=C/C=C/c2ccco2)cc1 -2.15%
N#CC(C(=S)Nc1ccccc1)c1nc2ccccc2[nH]1 (stereo unspecified) -1.77%
Cc1ccc(C(=O)NCC(=O)OCc2csc(-c3ccccc3)n2)cc1 -3.26%
O=S1(=O)Nc2c(ccc3cccnc23)-c2ccccc21 -3.15%
COc1ccc(C=C(c2nc3ccccc3s2)c2nc3ccccc3s2)cc1O 5.64%
S=c1[nH]c2cc(-c3ccccc3)ccc2o1 -4.88%
O=C(CSCC(=O)Nc1cccc([N+](=O)[O-])c1)Nc1ccccc1 -2.02%
Cc1ccc(NC(=S)NNC(C)(C)C)cc1 -6.52%
C=CCNC(=S)N/N=C/c1ccc(C(C)(C)C)cc1 -5.18%
S=c1nc(-c2ccccc2)[nH]c2ccc(Br)cc12 -3.2%
CCNc1cc(S(=O)(=O)C(F)(F)F)ccc1N -1.95%
COc1ccc(NC(=S)N2CCNC(=O)C2CC(=O)Nc2cccc(Cl)c2C)cc1 (stereo unspecified) -1.3%
CC(=O)N(c1ccccc1)C(C)c1nc(C#N)c(C#N)nc1C (stereo unspecified) -1.35%
Cc1cccnc1NC(=S)NC(=O)c1cncc(Br)c1 -1.51%
Cc1ccc(NC(=O)c2ccc3c(c2)C(=O)N(CC2CCCO2)C3=O)cc1C (stereo unspecified) -0.599%
Cc1cc(C)cc(NC(=O)CC2NCCNC2=O)c1 (stereo unspecified) -2.19%
CC1CC(C)(C)n2c(O)c(N=NC(N)=S)c3cccc1c32 (stereo unspecified) -1.18%
C/C(=N\NC(=S)NC(C)C)c1ccc(Cl)s1 -8.25%
CCOc1cccc(CNc2ccc(O)cc2)c1OCc1ccc(Cl)cc1 0.122%
CCN(CC)C(=O)[C@H]1C[C@H](CC(=O)NCc2cccc(C(F)(F)F)c2)C(=O)N2CCc3c([nH]c4cc(-c5ccco5)ccc34)[C@]12C 0.311%
O=C(CSc1nnc(Nc2ccccc2)s1)Nc1cccc(S(=O)(=O)N2CCCCC2)c1 -0.135%
CCSc1nnc(NC(=O)c2ccccn2)s1 -5.08%
Cc1cc(C)n(-c2nc(NCCCO)c3c4c(sc3n2)CCCC4)n1 -1.57%

Fetched by structure from above (3):
activation, inactive:
COc1ccc(C=C(c2nc3ccccc3s2)c2nc3ccccc3s2)cc1O 5.64%
CCSc1nnc(NC(=O)c2ccccn2)s1 -5.08%
Oc1ccc(N=Nc2nccs2)c(O)c1 -2.66%
